Measured values reported in paper PMC8803816.
Results are given in words; binding and its absence hold for the method and conditions named. Binding seen in cells or lysates may run through a third protein. Here binding means that the protein was enriched with, or labelled near, the bait; the list need not be complete.

T1: B cell lymphoma/leukemia 10 (BCL10) (human (endogenous in Jurkat)), O95999
T1 chain: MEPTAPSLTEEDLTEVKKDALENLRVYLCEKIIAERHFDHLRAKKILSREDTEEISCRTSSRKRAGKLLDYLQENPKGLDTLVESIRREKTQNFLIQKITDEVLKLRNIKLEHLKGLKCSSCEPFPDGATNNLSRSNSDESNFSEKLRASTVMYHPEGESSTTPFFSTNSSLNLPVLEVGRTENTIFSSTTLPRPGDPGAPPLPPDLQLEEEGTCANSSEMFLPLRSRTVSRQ


How the values were obtained:
[1] = biological target: T1, B cell lymphoma/leukemia 10 (BCL10) …; test: affinity purification with mass spectrometry; anti-BCL10 (C-17) IP from CK1α KO Jurkat T cells reconstituted with CK1α WT, untreated or P/I stimulated 20 min; 1% NP40 buffer; on-bead digestion, quantitative LC-MS/MS (n = 3); conditions: remark: other sources report otherwise
[2] = substrate: T2, B cell lymphoma/leukemia 10 (BCL10) (human (endogenous in Jurkat)) (UniProt O95999); test: as above
T2 sequence: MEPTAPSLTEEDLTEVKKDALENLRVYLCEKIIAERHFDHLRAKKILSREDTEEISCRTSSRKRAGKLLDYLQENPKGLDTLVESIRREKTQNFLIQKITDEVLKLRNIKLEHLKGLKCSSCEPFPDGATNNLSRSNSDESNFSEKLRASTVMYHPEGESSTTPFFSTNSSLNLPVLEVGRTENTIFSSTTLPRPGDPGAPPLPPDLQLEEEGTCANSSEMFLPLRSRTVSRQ

| Binder | binding [1] | binding [2] |
| --- | --- | --- |
| Heme-oxidized IRP2 ubiquitin ligase 1 (HOIL-1), Q9BYM8 1-510 (protein) MDEKTKKAEEMALSLTRAVAGGDEQVAMKCAIWLAEQRVPLSVQLKPEVSPTQDIRLWVSVEDAQMHTVTIWLTVRPDMTVASLKDMVFLDYGFPPVLQQWVIGQRLARDQETLHSHGVRQNGDSAYLYLLSARNTSLNPQELQRERQLRMLEDLGFKDLTLQPRGPLEPGPPKPGVPQEPGRGQPDAVPEPPPVGWQCPGCTFINKPTRPGCEMCCRARPEAYQVPASYQPDEEERARLAGEEEALRQYQQRKQQQQEGNYLQHVQLDQRSLVLNTEPAECPVCYSVLAPGEAVVLRECLHTFCRECLQGTIRNSQEAEVSCPFIDNTYSCSGKLLEREIKALLTPEDYQRFLDLGISIAENRSAFSYHCKTPDCKGWCFFEDDVNEFTCPVCFHVNCLLCKAIHEQMNCKEYQEDLALRAQNDVAARQTTEMLKVMLQQGEAMRCPQCQIVVQKKDGCDWIRCTVCHTEICWVTKGPRWGPGGPGDTSGGCRCRVNGIPCHPSCQNCH | binds |  |
| Aryl hydrocarbon receptor-interacting protein (AIP) (protein, UniProt O00170 1-330) MADIIARLREDGIQKRVIQEGRGELPDFQDGTKATFHYRTLHSDDEGTVLDDSRARGKPMELIIGKKFKLPVWETIVCTMREGEIAQFLCDIKHVVLYPLVAKSLRNIAVGKDPLEGQRHCCGVAQMREHSSLGHADLDALQQNPQPLIFHMEMLKVESPGTYQQDPWAMTDEEKAKAVPLIHQEGNRLYREGHVKEAAAKYYDAIACLKNLQMKEQPGSPEWIQLDQQITPLLLNYCQCKLVVEEYYEVLDHCSSILNKYDDNVKAYFKRGKAHAAVWNAQEAQADFAKVLELDPALAPVVSRELRALEARIRQKDEEDKARFRGIFSH |  | binds |

The next lines start with the values.

| binding [1] | binding [2] | Binder |
| --- | --- | --- |
|  | binds | IKKε (IKBKE) (protein, UniProt Q14164 1-716) MQSTANYLWHTDDLLGQGATASVYKARNKKSGELVAVKVFNTTSYLRPREVQVREFEVLRKLNHQNIVKLFAVEETGGSRQKVLVMEYCSSGSLLSVLESPENAFGLPEDEFLVVLRCVVAGMNHLRENGIVHRDIKPGNIMRLVGEEGQSIYKLTDFGAARELDDDEKFVSVYGTEEYLHPDMYERAVLRKPQQKAFGVTVDLWSIGVTLYHAATGSLPFIPFGGPRRNKEIMYRITTEKPAGAIAGAQRRENGPLEWSYTLPITCQLSLGLQSQLVPILANILEVEQAKCWGFDQFFAETSDILQRVVVHVFSLSQAVLHHIYIHAHNTIAIFQEAVHKQTSVAPRHQEYLFEGHLCVLEPSVSAQHIAHTTASSPLTLFSTAIPKGLAFRDPALDVPKFVPKVDLQADYNTAKGVLGAGYQALRLARALLDGQELMFRGLHWVMEVLQATCRRTLEVARTSLLYLSSSLGTERFSSVAGTPEIQELKAAAELRSRLRTLAEVLSRCSQNITETQESLSSLNRELVKSRDQVHEDRSIQQIQCCLDKMNFIYKQFKKSRMRPGLGYNEEQIHKLDKVNFSHLAKRLLQVFQEECVQKYQASLVTHGKRMRVVHETRNHLRLVGCSVAACNTEAQGVQESLSKLLEELSHQLLQDRAKGAQASPPPIAPYPSPTRKDLLLHMQELCEGMKLLASDLLDNNRIIERLNRVPAPPDV |
| binds |  | SHANK-associated RH domain interactor (SHARPIN), Q9H0F6 1-387 (protein) MAPPAGGAAAAASDLGSAAVLLAVHAAVRPLGAGPDAEAQLRRLQLSADPERPGRFRLELLGAGPGAVNLEWPLESVSYTIRGPTQHELQPPPGGPGTLSLHFLNPQEAQRWAVLVRGATVEGQNGSKSNSPPALGPEACPVSLPSPPEASTLKGPPPEADLPRSPGNLTEREELAGSLARAIAGGDEKGAAQVAAVLAQHRVALSVQLQEACFPPGPIRLQVTLEDAASAASAASSAHVALQVHPHCTVAALQEQVFSELGFPPAVQRWVIGRCLCVPERSLASYGVRQDGDPAFLYLLSAPREAPATGPSPQHPQKMDGELGRLFPPSLGLPPGPQPAASSLPSPLQPSWSCPSCTFINAPDRPGCEMCSTQRPCTWDPLAAAST |
